Assay: tensile test of shaped, cross-linked body tissue
Design: species or system human and animal
Settings: for stress resistance: FIG. 1, compound X 0.05% 24 hours, GA 0.2 to 0.625% 20 minutes
Experimental: To identify whether different cross-linking agents might have a different effect on the cross-linking of body tissue, in vitro tests were performed. For this purpose, human and animal body tissue was used and shaped in a deep-drawing process to give the body tissue the shape and size of a cardiac valve, namely of a pulmonary artery valve.
Afterwards, the shaped body tissue was fixated and stabilized by the addition of two different cross-linking agents. On the one hand, glutaraldehyde (GA) was used, on the other hand a compound having the structure of formula (X) was used. The latter compound will be referred to as compound X in the following. The final concentration of GA was chosen to be in a range of 0.2 to 0.625% in the treatment solution. The final concentration of compound X was chosen to be 0.05% in the treatment solution. The incubation was carried out over time period of 20 minutes (GA) or 24 hours (compound X) at a temperature lying in a range of 20° C. to 40° C. The treatment solution containing the cross-linking agent was buffered by a citrate buffer in a pH range of pH 4.8 to pH 5.0. Within the first 30 minutes of the cross-linking process, the shaped body tissue and the treatment solution were agitated by a rocking shaker at 100 rpm.
Afterwards, a tensile test was carried out.
At the same time, the maximum achieved strain was 10% higher in case of the cross-linking with GA than in case of compound X (57% vs. 51%). For the functioning of a cardiac valve, however, a higher stress resistance and a sufficiently high strain resistance is believed to be more important than a high strain resistance alone. Therefore, it was decided to carry out subsequent characterization tests only with respect to the shaped body tissue cross-linked with compound X.

Row | Structure (SMILES) | maximum achieved strain (FIG. 1) [%] | maximum achieved strain, higher than in case of compound X (FIG. 1) [%] | stress resistance [MPa] | stress resistance relative to body tissue cross-linked with GA (FIG. 1) [fold]
1 | O=CCCCC=O [GA, glutaraldehyde] | 57 | 10 | 6.7 | 
2 | C/C=C1\C(O)OC=C(C(=O)OC)C1CC(=O)OCCc1ccc(O)c(O)c1 (stereo not drawn) [compound X] | 51 |  | 9.5 | 1.5
